Source: PMC3084728
These are yes or no findings as the source states them, for the method shown. Binding seen in cells or lysates may run through a third protein. Some results given as binding are weak or reduced against the parent protein; the word gives no strength.

By UniProt entry, the sequences of proteins in these tests, tags left out. Where a name states a change or a piece, a line headed by the entry shows the natural chain unless it says otherwise. Chains listed by the source or under a name are the forms on record and can include a tag or linker. Residues count along the entry.
UniProt O00629: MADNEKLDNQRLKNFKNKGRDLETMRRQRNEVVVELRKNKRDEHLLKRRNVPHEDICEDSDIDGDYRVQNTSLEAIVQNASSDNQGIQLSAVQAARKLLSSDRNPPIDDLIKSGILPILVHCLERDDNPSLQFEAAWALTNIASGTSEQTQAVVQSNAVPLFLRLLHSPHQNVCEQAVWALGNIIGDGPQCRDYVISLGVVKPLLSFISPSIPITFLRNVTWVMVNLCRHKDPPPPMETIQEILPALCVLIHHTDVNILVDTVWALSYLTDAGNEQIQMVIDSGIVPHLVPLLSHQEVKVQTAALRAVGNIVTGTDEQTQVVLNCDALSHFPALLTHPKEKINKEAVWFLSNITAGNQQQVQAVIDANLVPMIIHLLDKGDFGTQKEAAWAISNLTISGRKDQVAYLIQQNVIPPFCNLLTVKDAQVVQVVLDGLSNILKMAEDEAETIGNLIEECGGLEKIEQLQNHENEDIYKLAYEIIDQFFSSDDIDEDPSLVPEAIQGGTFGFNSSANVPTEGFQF
UniProt Q14974, residues 1-462: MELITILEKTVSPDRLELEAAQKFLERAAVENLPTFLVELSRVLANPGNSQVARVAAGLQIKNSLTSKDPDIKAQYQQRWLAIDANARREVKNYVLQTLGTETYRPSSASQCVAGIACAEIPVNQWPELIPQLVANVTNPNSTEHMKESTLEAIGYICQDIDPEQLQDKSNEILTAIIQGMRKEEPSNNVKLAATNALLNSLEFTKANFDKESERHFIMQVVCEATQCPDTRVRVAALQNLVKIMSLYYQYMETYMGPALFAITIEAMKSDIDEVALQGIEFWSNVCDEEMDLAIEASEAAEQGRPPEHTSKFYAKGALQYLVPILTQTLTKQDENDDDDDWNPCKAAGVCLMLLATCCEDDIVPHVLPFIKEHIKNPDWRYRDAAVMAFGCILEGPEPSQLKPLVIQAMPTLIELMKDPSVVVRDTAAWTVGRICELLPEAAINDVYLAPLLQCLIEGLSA
UniProt P52294: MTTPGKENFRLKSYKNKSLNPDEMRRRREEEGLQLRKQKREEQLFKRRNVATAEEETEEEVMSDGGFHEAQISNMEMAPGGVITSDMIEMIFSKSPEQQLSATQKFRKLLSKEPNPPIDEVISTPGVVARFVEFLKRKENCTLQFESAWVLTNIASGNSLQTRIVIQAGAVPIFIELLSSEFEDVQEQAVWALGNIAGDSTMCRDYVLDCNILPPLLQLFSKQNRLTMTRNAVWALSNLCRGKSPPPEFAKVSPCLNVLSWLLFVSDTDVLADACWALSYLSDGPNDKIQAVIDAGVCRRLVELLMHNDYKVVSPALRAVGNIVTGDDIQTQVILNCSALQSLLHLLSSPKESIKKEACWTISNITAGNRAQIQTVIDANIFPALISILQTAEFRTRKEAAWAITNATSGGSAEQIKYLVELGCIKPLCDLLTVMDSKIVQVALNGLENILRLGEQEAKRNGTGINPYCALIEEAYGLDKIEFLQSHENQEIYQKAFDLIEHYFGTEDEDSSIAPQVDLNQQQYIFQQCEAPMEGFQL
FLAG-tagged C-terminal truncation of KSHV LANA containing the 329 aa N-terminal domain (Q9QR71, residues 1-329): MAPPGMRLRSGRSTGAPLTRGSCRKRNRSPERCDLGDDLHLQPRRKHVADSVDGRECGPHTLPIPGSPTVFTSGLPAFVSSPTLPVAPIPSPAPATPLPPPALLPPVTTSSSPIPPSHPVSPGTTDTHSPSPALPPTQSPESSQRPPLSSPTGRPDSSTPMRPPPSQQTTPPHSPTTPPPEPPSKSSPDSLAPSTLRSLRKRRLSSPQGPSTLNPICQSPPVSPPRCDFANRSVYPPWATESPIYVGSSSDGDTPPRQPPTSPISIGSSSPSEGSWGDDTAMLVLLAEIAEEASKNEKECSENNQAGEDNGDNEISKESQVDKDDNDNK
N-terminal 51 amino acids of KSHV LANA fused to EGFP (Q9QR71, residues 1-51): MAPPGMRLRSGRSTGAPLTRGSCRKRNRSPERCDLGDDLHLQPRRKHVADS
N-terminal 24 amino acids of KSHV LANA fused to 1×EGFP (Q9QR71, residues 1-24): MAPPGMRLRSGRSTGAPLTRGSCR

Experiments:
GST-tagged importin α3 [1] = biological target: GST-tagged importin α3 (UniProt O00629); experiment: pull-down; RanQ69L-GTP competition: GST or GST-importins on glutathione-sepharose beads incubated with Cos7 lysates 2 hours at 4°C, washed, suspended in PBS, then incubated 30 minutes at room temperature with 6×His-RanQ69L-GTP (increasing amounts, up to 80 µM) or PBS; bound protein detected by Western blot with anti-EGFP or anti-FLAG; only the target purified
[2] = biological target: GST-tagged deletion mutant of importin β1, importin β1Δ_((1–462)) (UniProt Q14974); experiment: as above
GST-tagged importin α3 [3] = biological target: GST-tagged importin α3 (UniProt O00629); experiment: pull-down; GST or GST-tagged importins immobilised on glutathione-sepharose beads (equivalent amounts), incubated with lysates of transfected Cos7 cells (1% NP40 lysis buffer: 50 mM Tris, 150 mM NaCl, 5% glycerol) for 2 hours at 4°C, washed; bound EGFP fusions detected by Western blot with …; only the target purified
GST-tagged importin α7 = GST-tagged importin α7 (UniProt O60684); experiment: as above
[4] = biological target: GST-tagged deletion mutant of importin β1, importin β1Δ_((1–462)) (UniProt Q14974); experiment: as above
GST-tagged importin α5 = GST-tagged importin α5 (UniProt P52294); experiment: as above

Substance | binding (GST-tagged importin α3 [1]) | binding [2] | binding (GST-tagged importin α3 [3]) | binding (GST-tagged importin α7) | binding [4] | binding (GST-tagged importin α5)
FLAG-tagged C-terminal truncation of KSHV LANA containing the 329 aa N-terminal domain (from UniProt Q9QR71 1-329) (domain or fragment) | binds | binds weakly |  |  |  | 
N-terminal 51 amino acids of KSHV LANA fused to EGFP (from UniProt Q9QR71 1-51) (domain or fragment) | binds |  | binds | binds | binds | binds
N-terminal 24 amino acids of KSHV LANA fused to 1×EGFP (from UniProt Q9QR71 1-24) (domain or fragment) |  | binds |  |  |  | 
